Hit rate of the full screen: of about 31,000 sequences, about 1,400 (4.5%) were called active.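 The calls were made as follows: active = median seed-adjusted z-score above 1 or below -1; inactive = the rest.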 This is one part of the list.

This assay is described as follows: Novel Modifiers of Survival Motor Neuron (SMN) Protein: Gene Identification via Genome-wide siRNA Screen.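 Also: luminescence tracks full-length SMN protein made from the SMN2 reporter.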 The note with it: HEK293T SMN2-luciferase reporter, siRNA knockdown, 72 h; actives lie on both sides. The method, boiled down: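 Steps: spot 1 pmol siRNA, add Lipofectamine RNAiMax in serum-free DMEM, seed HEK293T SMN2–luciferase reporter cells; incubate 72 h at 37 °C; add ONE-Glo; normalize luminescence to control siRNA, log10, MAD. Candidates: |MAD| > 1.0.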
Turning to GCAGAUUUUGAGCAACUGATT against TRIM5, the median seed-adjusted z-score is inactive: 0.0758.
As for GAUUAAUCCUACCAUAUGATT against ARID5B, the median seed-adjusted z-score was inactive: 0.
As for GAAAGGAGAUUCCAACCUATT against PCDHGA3, the figure is inactive: 0.27; as for GUGGACAAAUUGACCUUAATT against OAT, inactive: -0.0231.
To GAUGAAAUCUACUCUCGAATT against ZNF615 belongs inactive: 0.0912; to GAACUAAUCAGGAAGCUUATT against DHX40, inactive: -0.75; to GGAAUUAGGUCUAACAGCATT against SMG1, inactive: -0.106.
For the sequence GGCUAUCAGUCUGAUGCAATT against ADAMTS5, the median seed-adjusted z-score was inactive: -0.306.
As for GCAUAAUCCAUGUACCGAATT against SIPA1L2, the figure is inactive: -0.573; as for GAACUUACCUUACAUAGCUTT against MERTK, inactive: 0.369.
Consider CAGAAUCAGCUGGAAGAAATT against BAIAP2, for which the median seed-adjusted z-score is inactive: -0.0497.
As for GUUCAGAUCUUGUUAAGCATT against ZNF271, the figure is inactive: 0.484.
To GCAUCUACGUGGGUAACUUTT against SFRS1 belongs active: -1.66; to GGCUAACUAUUUUGUCAGATT against ABHD7, inactive: -0.301.
To GGACAAAGUACAAACGGCATT against EMX1 belongs inactive: -0.689; to CAGUGGACUUCCAACCCAATT against SF3A1, active: -1.09; to CAGGACAUCUGGUAUGUUATT against ERN1, inactive: 0.684.
As to UGCUGAAGGAUAACAAGAATT against ACADS, the median seed-adjusted z-score was inactive: 0.121.
To GGUACAAAGCAAUCGGACATT against GUCA2B belongs inactive: -0.146.
As for GCACUUGCUUUAGCUAUCATT against PSMA4, the figure is inactive: 0.
For GCAUGGAGUCCAACACUGATT against NR2E3, the median seed-adjusted z-score was inactive: -0.184.
To CAUUGUUACUGGAACUGAUTT against KPNA4 belongs inactive: 0.457; to GUAGAGAUCUUGUAGAAUATT against ARL6IP2, inactive: 0.274.
Turning to GGUCUUCAGUCCUCGGAUATT against FAT4, the median seed-adjusted z-score was inactive: -0.363.
To GAAACUUUCAUUACGUAUATT against SNX7 belongs inactive: 0.146; to CAACAACUAUUCACCAAAUTT against DNAJB7, inactive: 0.684; to CCACGUCUCUGGAGAGUUUTT against ALAD, inactive: 0.0952.
To GAGUGACCAUUCCAACAGATT against DAG1 belongs inactive: -0.104; to GCAUGUCCCGAAAACAAGATT against KLF7, inactive: 0.393.
To GCACAGUUGUCACUACCAUTT against KCNK16 belongs inactive: 0; to GCACCUUCACGUUUCGAAATT against GMPR, inactive: 0.0757; to CCACUGCUACCACAAGUUUTT against RET, inactive: -0.931.
For the sequence CAAUCGAACGUAAACAACATT against ADD3, the median seed-adjusted z-score is inactive: 0.0741.
For CCGCAGCUGCUAUAAGAGATT against SLC9A10, the median seed-adjusted z-score was inactive: -0.0418.
To GCGUGCUCUUCUUCGCUGATT against B3GAT2 belongs inactive: 0.33; to CCUCAAAUGCAGUAUUUUUTT against HMOX1, inactive: 0.45; to GGUCGUUUUAGAUCAAUGATT against PPFIA1, inactive: 0.312.
To GGCUGUGCACGAGAAUCUATT against KIFC3 belongs inactive: 0.54.
As to CAAGAUGCUGGAUAAGGAATT against GYS1, the median seed-adjusted z-score was inactive: 0.874.
Regarding GGAGGGAUCUGGAUUCAUUTT against LCMT2, the median seed-adjusted z-score is inactive: -0.0205.
To CAAUAUCUGCUGUUAGCAATT against SCARB2 belongs inactive: -0.244; to GCCUUCUACUCGCUGAACATT against IRX4, inactive: 0.0613; to GCUGUUGCUUCAUACGAUUTT against NPM2, inactive: 0.215.
To GGACGACCACCUAAGAACATT against MGA belongs inactive: 0.0136; to CGGUCACAAUUUGCGCUGATT against ST8SIA3, inactive: -0.848; to CGAAGAUCCUAGAGAUGCATT against SFRS7, inactive: 0.44.
As for GGGCGAAAGUAUCAUAUCATT against UGCGL1, the figure is inactive: -0.391.
With CCACCUACAUCGGCAUCUATT against SLC6A9, the median seed-adjusted z-score is inactive: 0.241.
As for GGUUGAAAAGGAGUGCAAATT against CACYBP, the figure is inactive: -0.33; as for GGAACACGCAUGUCUGGAATT against NOS1, inactive: 0.0195; as for GCACUGGGACCAUACCAAATT against IL11RA, inactive: -0.708.
Regarding GCAAUACCCUAGAGAAGGATT against SMAP2, the median seed-adjusted z-score is inactive: -0.0114.
As for GCAGAUUGUUUUACAAGGATT against ZNF143, the figure is inactive: -0.357; as for GCAAGGCGGUGUUCUCCAUTT against MRGPRF, inactive: -0.654.
In the case of GGAAAACGGAAAGAUCAAATT against APOD, the median seed-adjusted z-score is inactive: -0.115.
As for CCAAUGCAGUGAUUACCGUTT against HSPA1L, the figure is active: -1.27; as for CAGUUCCACUCAUUCAAGATT against GPT, inactive: -0.00224.
On to GUAGCUAACAUGAAAGAGATT against SIX4, for which the median seed-adjusted z-score is inactive: 0.0462.
As for GCAUUUCUUGAGUUCGAUATT against CABP5, the figure is inactive: 0.372; as for CAAGAAAACCAGAAUGGAATT against SERPING1, inactive: -0.244; as for CCAAGUUGCCUAUACAGUUTT against SLC22A2, inactive: -0.0161.
As for GAAAACCGCAGAUAAAGUATT against NFRKB, the figure is inactive: 0.787; as for CAAUCCUGCUGACAUCCUATT against SLC5A2, inactive: -0.0782.
To GGGUUUUUAGAAUCUUCAATT against KCNA1 belongs inactive: -0.277; to CUAUACGAGUUUUAAUGAATT against HTR1E, inactive: 0.00535; to GGACUUAAAGGGUCAGUUATT against KIFC1, inactive: 0.0417.
Consider GGAUAGAUUUCAAUACCAUTT against GLIS3, for which the median seed-adjusted z-score was inactive: -0.00906.
As for GGACAUGAACCAUACGAAUTT against PRPF8, the figure is active: -1.54; as for GCAGAUACACUCAAAGUAATT against DDX27, inactive: -0.131; as for GGCACAUCAUUAACAUCAATT against DHRS11, inactive: -0.476.
To GCUCAUUGAGACUACAUCATT against EIF2AK1 belongs inactive: -0.546.
As to GGAUGUCACUGUUUCUGGATT against CLIC6, the median seed-adjusted z-score is inactive: -0.00828.
On to CAUCCCUUGUAAUUCACAATT against ZNF702, for which the median seed-adjusted z-score is inactive: 0.204.
To GCUCCACAUUUGUUAGACATT against ZNF548 belongs inactive: -0.508; to CACAAUGAGUUAACUGAUATT against LILRB4, inactive: -0.104; to GGCCGUUUGUCAUUCCCUUTT against CBFA2T3, inactive: -0.135.
To GGAUCUGCAUCGUCAUCGATT against TNS3 belongs inactive: 0.18.
As for CGAACGUAUGGGUGAAGCATT against CHRNA4, the figure is inactive: 0.174; as for CACCCAAAAAGAUGACAGATT against PSMD8, inactive: 0.0952.
For GAGCAUUGCUCAUCUCUUUTT against TRUB1, the median seed-adjusted z-score is inactive: 0.561.
To GGCUACAUUCAGAACUACATT against PPAP2B belongs inactive: 0.
For CGUACAUUCCAUCAAGUAATT against CDON, the median seed-adjusted z-score was inactive: 0.777.
As for AGAGUGACCUGAUUGAGCATT against CSNK2B, the figure is active: -1.62; as for UGCUGAUCGUGGGAGAAAATT against AQP9, inactive: -0.192.
To GACUGCUACUUCCCUUUUATT against FARS2 belongs inactive: 0.587.
As for GAUCUGAUGCCGGAAUAUATT against ERMAP, the figure is inactive: -0.276; as for UGAACUUGAUGAAGGAGAATT against S100A7L2, inactive: 0.283.
Turning to GCAGUUUCGAAAUCAACGATT against TEX14, the median seed-adjusted z-score is inactive: -0.107.
To CUAUGACCCUUACCCGUAUTT against FMOD belongs active: -1.32; to GCAACCCGAAGACAGGGAATT against ZNF226, inactive: 0.437.
As for CUACCAGGCUUAAUAGGAATT against GFM2, the figure is inactive: 0.26; as for CCGGCUUAAUGUUGAUGGATT against PIP4K2A, inactive: 0.469.
As for GGUAUUAACUGGUCAGUAUTT against SLC17A4, the figure is inactive: 0.262; as for CUACAACUAUUGUGCCUAUTT against ETV5, inactive: 0.0756; as for GCACCAAGGCGAUUGUUCATT against ATP6V1B1, inactive: 0.38.
Consider ACACCCAGAUUAUGCUUUUTT against SPAG16, for which the median seed-adjusted z-score was inactive: -0.0252.
To GCAUUUCACCAUUCAAACATT against PCSK9 belongs inactive: 0.146.
GCUGUGCGUUCUUCACAAATT against RAB17: the median seed-adjusted z-score is inactive: 0.473.
For the sequence GGAUGUUAUCGCUAUUGAATT against GPRC5A, the median seed-adjusted z-score is inactive: -0.56.
To GGAUAUGAGUUUACUGGGATT against IL20RA belongs inactive: -0.646; to GGUGGUCGCUAGGUAUGAATT against WNT5A, inactive: 0.651; to GGCUAUUUCUACGAAAGUUTT against CDC7, inactive: -0.236.
As for UAUCAAGAAUGGAACUGAATT against NSDHL, the figure is inactive: 0.716; as for GACUCAUCUUUAUACCCUUTT against CLGN, inactive: 0.18; as for GCAUCAAGAUCAAUCGAGUTT against LNX1, inactive: -0.463.
To AGUACAACCUUGCUGUGAATT against ELA3A belongs inactive: -0.0465; to CCAGCAUCCUGACCAUCCATT against FLT4, inactive: -0.861.

The values above are taken from PubChem BioAssay AID1347426 (Functional Genomics Laboratory (NCATS/FGL), 2020).
